No constants are given. Whether binding was seen depends on the method and setting. Binding seen in cells or lysates may run through a third protein. Some binding calls cover weakened binding; strength is not graded here.

Sequences of proteins named here, by UniProt entry; tags and fusion partners are left off.
UniProt P08699: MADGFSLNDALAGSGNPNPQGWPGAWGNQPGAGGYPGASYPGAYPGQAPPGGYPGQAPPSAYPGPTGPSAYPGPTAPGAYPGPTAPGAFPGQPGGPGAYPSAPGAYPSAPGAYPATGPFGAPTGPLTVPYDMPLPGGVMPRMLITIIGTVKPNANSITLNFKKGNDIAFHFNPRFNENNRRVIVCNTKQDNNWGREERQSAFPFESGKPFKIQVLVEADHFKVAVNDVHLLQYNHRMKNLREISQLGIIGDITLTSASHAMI
UniProt Q8CFN2: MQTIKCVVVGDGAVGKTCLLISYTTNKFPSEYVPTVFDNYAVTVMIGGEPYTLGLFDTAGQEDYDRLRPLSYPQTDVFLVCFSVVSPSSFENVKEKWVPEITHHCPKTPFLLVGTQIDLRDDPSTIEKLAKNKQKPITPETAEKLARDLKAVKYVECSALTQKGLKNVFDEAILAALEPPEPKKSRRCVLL

This experiment deals with Galectin-3 (rat (endogenous in primary spinal cord neurons)) (UniProt P08699). The experiment in a line: co-IP; whole cell lysate of glutamate-injured rat spinal cord neurons, pre-absorbed with protein A + G agarose beads, incubated overnight at 4°C with the designated antibodies; Western blot; which protein was precipitated is not told.

Consider “Cell-division-cycle-42 (from UniProt Q8CFN2 1-191)”, for which the binding result is “binds”.
